No constants are given. Whether binding was seen depends on the method and setting. For part of these data: Binding calls can cover weak binding; strength is not graded here. For part of these data: Sequences can lack the tags named with a protein. For part of these data: Binding seen in cells or lysates may run through a third protein.
T1: ornithine decarboxylase antizyme 1 (OAZ1) of Recilia dorsalis, yeast two-hybrid fusion (Recilia dorsalis)
T1 sequence: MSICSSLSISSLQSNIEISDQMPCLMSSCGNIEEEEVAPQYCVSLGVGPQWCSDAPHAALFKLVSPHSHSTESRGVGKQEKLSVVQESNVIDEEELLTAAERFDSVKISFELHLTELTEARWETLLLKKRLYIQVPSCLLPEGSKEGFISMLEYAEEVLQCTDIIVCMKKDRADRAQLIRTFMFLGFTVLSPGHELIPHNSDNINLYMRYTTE

T2: ornithine decarboxylase 1 (ODC1) of Recilia dorsalis, yeast two-hybrid fusion (Recilia dorsalis)
T2 sequence: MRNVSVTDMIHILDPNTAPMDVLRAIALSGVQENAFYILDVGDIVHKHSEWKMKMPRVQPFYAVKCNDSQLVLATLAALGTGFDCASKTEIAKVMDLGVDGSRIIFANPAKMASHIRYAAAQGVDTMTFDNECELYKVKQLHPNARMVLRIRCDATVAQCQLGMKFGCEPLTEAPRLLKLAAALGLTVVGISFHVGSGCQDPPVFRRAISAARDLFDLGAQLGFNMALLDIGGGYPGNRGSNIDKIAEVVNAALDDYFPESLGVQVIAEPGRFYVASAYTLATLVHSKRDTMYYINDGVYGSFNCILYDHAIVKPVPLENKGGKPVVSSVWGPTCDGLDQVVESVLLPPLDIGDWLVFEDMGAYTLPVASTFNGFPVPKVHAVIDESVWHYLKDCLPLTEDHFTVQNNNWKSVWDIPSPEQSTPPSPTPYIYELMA


How the values were obtained:
[1] = target: T1, ornithine decarboxylase antizyme 1 (OAZ1) of Recilia dorsalis, yeast two-hybrid fusion (Recilia dorsalis); test: two-hybrid; Matchmaker Gal4 Two-Hybrid System3 (Clontech), bait plasmid pGBKT7 and prey plasmid pGADT7, yeast strain AH109; growth on DDO and QDO + X-alpha-gal plates, also serially diluted 10^-1 to 10^-4
[2] = target: T2, ornithine decarboxylase 1 (ODC1) of Recilia dorsalis, yeast two-hybrid fusion (Recilia dorsalis); test: as above
[3] = target: C-terminal ODC-AZ domain of OAZ1 of Recilia dorsalis, yeast two-hybrid fusion (Recilia dorsalis); test: as above
[4] = target: GST-M (RSMV matrix protein fused with GST) (rice stripe mosaic virus); test: pull-down; GST-fused proteins on glutathione-Sepharose beads 4 h at 4 °C, His-fused proteins then added 2 h at 4 °C; western blot with antibodies against GST and His
[5] = target: RSMV matrix protein (M) in viruliferous Recilia dorsalis (rice stripe mosaic virus); test: co-IP; RSMV-M-specific IgG on Protein A affinity beads; lysates of 30 viruliferous or nonviruliferous R. dorsalis adults, 2 h at 4 °C; blot with OAZ1- and beta-actin-specific IgG

| Molecule | binding [1] | binding [2] | also measured |
| --- | --- | --- | --- |
| matrix protein (M) of rice stripe mosaic virus (RSMV), yeast two-hybrid fusion | binds | no binding | – |
| P6 protein of rice stripe mosaic virus, yeast two-hybrid fusion | no binding | no binding | – |
| glycoprotein (G) of rice stripe mosaic virus, yeast two-hybrid fusion | no binding | no binding | – |
| nucleoprotein (N) of rice stripe mosaic virus, yeast two-hybrid fusion | no binding | no binding | – |
| phosphoprotein (P) of rice stripe mosaic virus, yeast two-hybrid fusion | no binding | no binding | – |
| P3 protein of rice stripe mosaic virus, yeast two-hybrid fusion | no binding | no binding | – |
| ornithine decarboxylase 1 (ODC1) of Recilia dorsalis, yeast two-hybrid fusion (enzyme, UniProt A0A8K1F0V5 1-436) MRNVSVTDMIHILDPNTAPMDVLRAIALSGVQENAFYILDVGDIVHKHSEWKMKMPRVQPFYAVKCNDSQLVLATLAALGTGFDCASKTEIAKVMDLGVDGSRIIFANPAKMASHIRYAAAQGVDTMTFDNECELYKVKQLHPNARMVLRIRCDATVAQCQLGMKFGCEPLTEAPRLLKLAAALGLTVVGISFHVGSGCQDPPVFRRAISAARDLFDLGAQLGFNMALLDIGGGYPGNRGSNIDKIAEVVNAALDDYFPESLGVQVIAEPGRFYVASAYTLATLVHSKRDTMYYINDGVYGSFNCILYDHAIVKPVPLENKGGKPVVSSVWGPTCDGLDQVVESVLLPPLDIGDWLVFEDMGAYTLPVASTFNGFPVPKVHAVIDESVWHYLKDCLPLTEDHFTVQNNNWKSVWDIPSPEQSTPPSPTPYIYELMA | – | – | binding [3]: binds |
| His-OAZ1 (OAZ1 of Recilia dorsalis fused with His) (protein, UniProt A0A8K1BCU6 1-213) MSICSSLSISSLQSNIEISDQMPCLMSSCGNIEEEEVAPQYCVSLGVGPQWCSDAPHAALFKLVSPHSHSTESRGVGKQEKLSVVQESNVIDEEELLTAAERFDSVKISFELHLTELTEARWETLLLKKRLYIQVPSCLLPEGSKEGFISMLEYAEEVLQCTDIIVCMKKDRADRAQLIRTFMFLGFTVLSPGHELIPHNSDNINLYMRYTTE | – | – | binding [4]: binds |
| endogenous OAZ1 of Recilia dorsalis (protein, UniProt A0A8K1BCU6 1-213) MSICSSLSISSLQSNIEISDQMPCLMSSCGNIEEEEVAPQYCVSLGVGPQWCSDAPHAALFKLVSPHSHSTESRGVGKQEKLSVVQESNVIDEEELLTAAERFDSVKISFELHLTELTEARWETLLLKKRLYIQVPSCLLPEGSKEGFISMLEYAEEVLQCTDIIVCMKKDRADRAQLIRTFMFLGFTVLSPGHELIPHNSDNINLYMRYTTE | – | – | binding [5]: binds |

From publication PMC10441986
